Results from one PubChem assay

From PubChem BioAssay record AID917 (NCATS, 2007).

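Mouse Ba/F3 pro-B cells engineered with a human thrombopoietin receptor and a glycoprotein IIb promoter-driven luciferase; luminescence is measured after incubation with compounds, with or without added TPO. Each compound was tested as a dilution series from about 0.0025 to 38 µM. The number is a fitted AC50, and a lower value means a more potent compound; the curve note shows whether the light signal rose or fell. Well-fitted complete curves, or well-fitted partial curves with high efficacy, are called active, flat curves inactive, and all other curves, including signal decreases, inconclusive.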

Values are in µM. All entries here are filed as inconclusive. Only part of the assay is shown, chiefly results filed as inconclusive. Potencies fitted to partial, single-point or poorly fitting curves are rough. Some entries filed as inconclusive have a full curve. The first word of each remark tells which way the curve ran; it can be opposite to the aim of the assay.

With COc1ccccc1N1CCN(CCCCNS(=O)(=O)c2cccc3c(N(C)C)cccc23)CC1 [stimulated with TPO at its EC50] the assay gave fitted potency 10 µM (inhibitor, partial curve).
With Cc1ccc(C(=O)Nc2ccc(S(=O)(=O)O)c3cc(S(=O)(=O)O)cc(S(=O)(=O)O)c23)cc1NC(=O)c1cccc(NC(=O)Nc2cccc(C(=O)Nc3cc(C(=O)Nc4ccc(S(=O)(=O)O)c5cc(S(=O)(=O)O)cc(S(=O)(=O)O)c45)ccc3C)c2)c1 [stimulated with TPO at its EC50] the assay gave fitted potency 3.981 µM (activator, single point).
With Oc1cc2c(cc1O)CN(C(=S)NCCc1ccc(Cl)cc1)CCC2 [stimulated with TPO at its EC50] the assay gave fitted potency 10 µM (inhibitor, partial curve).
With COC[C@H]1OC(=O)c2coc3c2[C@@]1(C)C1=C(C3=O)[C@H]2CCC(=O)[C@@]2(C)C[C@H]1OC(C)=O the assay gave fitted potency 3.162 µM (inhibitor, partial curve).
With Cc1nc(N=Nc2ccc(S(=O)(=O)O)cc2S(=O)(=O)O)c(COP(=O)(O)O)c(C=O)c1O [stimulated with TPO at its EC50] the assay gave fitted potency 12.59 µM (activator, single point).
With NCCNC(=O)c1ncsc1-c1cccc(F)c1 [stimulated with TPO at its EC50] the assay gave fitted potency 19.95 µM (inhibitor, single point).
With CC[C@H](NC(C)C)[C@H](O)c1ccc(O)c(O)c1 [stimulated with TPO at its EC50] the assay gave fitted potency 12.59 µM (inhibitor, partial curve).
With CN(C)CCC=C1c2ccccc2C=Cc2ccccc21 [stimulated with TPO at its EC50] the assay gave fitted potency 15.85 µM (inhibitor, single point).
With CC[N+](C)(C)Cc1ccccc1Br [stimulated with TPO at its EC50] the assay gave fitted potency 12.59 µM (inhibitor, single point).
With C[C@@H](NC(=O)/C(C#N)=C/c1ccc(O)c(O)c1)c1ccccc1 [stimulated with TPO at its EC50] the assay gave fitted potency 6.31 µM (inhibitor, partial curve).
With CCN(CC)CCOC(=O)C1(C2CCCCC2)CCCCC1 [stimulated with TPO at its EC50] the assay gave fitted potency 10 µM (inhibitor, partial curve).
With CCCCCCC(C)(C)c1ccc([C@@H]2C[C@H](O)CC[C@@H]2CCCO)c(O)c1 the assay gave fitted potency 12.59 µM (inhibitor, single point).
With CP(=O)(O)CCCN [stimulated with TPO at its EC50] the assay gave fitted potency 19.95 µM (activator, single point).
With CNCC[C@H](Oc1ccc(C(F)(F)F)cc1)c1ccccc1 the assay gave fitted potency 19.95 µM (inhibitor, single point).
With N=c1ccn2c(n1)O[C@@H]1[C@@H](O)[C@H](CO)O[C@H]12 [stimulated with TPO at its EC50] the assay gave fitted potency 5.012 µM (inhibitor, partial curve).
With Nc1ncnc2c1ncn2C1CCCC1 [stimulated with TPO at its EC50] the assay gave fitted potency 10 µM (activator, single point).
With COc1cc2c(c(OC)c1OC)-c1ccc(OC)c(=O)cc1[C@@H](NC(C)=O)CC2 the assay gave fitted potency 0.5012 µM (inhibitor, full curve).
With Nc1ncnc2c1ncn2[C@@H]1O[C@@H](COP(=O)(O)OP(=O)(O)OP(=O)(O)OP(=O)(O)OC[C@@H]2O[C@@H](n3cnc4c(N)ncnc43)[C@@H](O)[C@H]2O)[C@H](O)[C@@H]1O [stimulated with TPO at its EC50] the assay gave fitted potency 10 µM (activator, single point).
With N[C@H](CCC(=O)N[C@H](CSN=O)C(=O)NCC(=O)O)C(=O)O [stimulated with TPO at its EC50] the assay gave fitted potency 0.1259 µM (inhibitor, full curve, poor fit).
With Cc1ccccc1/C=C\C1=NCCN1 [stimulated with TPO at its EC50] the assay gave fitted potency 12.59 µM (inhibitor, partial curve).
With CC[C@]1(C2=NCCN2)Cc2ccccc2O1 the assay gave fitted potency 10 µM (activator, single point).
With Cc1cc(C)c(NC(=O)C[C@H](CC(=O)O)c2cccc3ccccc23)c(C(=O)N2CCC3(CCCC3)CC2)c1 [stimulated with TPO at its EC50] the assay gave fitted potency 12.59 µM (inhibitor, partial curve, poor fit).
With C=CCN1CCc2c(cc(O)c(O)c2Cl)[C@H](c2ccccc2)C1 [stimulated with TPO at its EC50] the assay gave fitted potency 2.512 µM (inhibitor, partial curve, poor fit).

2 of the entries, repeated:

{"compound": "N[C@H](CCC(=O)N[C@H](CSN=O)C(=O)NCC(=O)O)C(=O)O", "tested on / at": "stimulated with TPO at its EC50", "fitted potency (µM)": "0.1259", "curve as filed": "inhibitor, full curve, poor fit"}
{"compound": "Nc1ncnc2c1ncn2C1CCCC1", "tested on / at": "stimulated with TPO at its EC50", "fitted potency (µM)": "10", "curve as filed": "activator, single point"}